Reference: the supplement of paper PMC8728848
The list shows a part of the results.

Key:
Assay in all cases: glycan array binding signal (z-score within array); higher = stronger binding
Settings in all cases: glycan notation: IUPAC condensed, linker removed
[1] = target: Gal(b1-3)GlcNAc(b1-3)Gal(b1-4)GlcNAc(b1-2)[Gal(b1-3)GlcNAc(b1-3)Gal(b1-4)GlcNAc(b1-6)]Man(a1-6)[Gal(b1-3)GlcNAc(b1-3)Gal(b1-4)GlcNAc(b1-2)Man(a1-3)]Man(b1-4)GlcNAc(b1-4)[Fuc(a1-6)]GlcNAc
Procedure, shortened: (§1)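 The Consortium for Functional Glycomics database supplied 3228 glycan arrays, of which those lacking an available protein sequence were dropped. The binding signal, a within-array Z-score, was averaged across arrays of the same protein sequence and across linkers. Negative scores can be read as non-binding.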

[2] = target: Gal(b1-3)GlcNAc(b1-3)Gal(b1-4)GlcNAc(b1-3)Gal(b1-4)GlcNAc(b1-2)[Gal(b1-3)GlcNAc(b1-3)Gal(b1-4)GlcNAc(b1-3)Gal(b1-4)GlcNAc(b1-6)]Man(a1-6)[Gal(b1-3)GlcNAc(b1-3)Gal(b1-4)GlcNAc(b1-3)Gal(b1-4)GlcNAc(b1-2)Man(a1-3)]Man(b1-4)GlcNAc(b1-4)[Fuc(a1-6)]GlcNAc
Procedure, shortened: as §1

[3] = target: Gal(b1-3)GlcNAc(b1-3)Gal(b1-4)GlcNAc(b1-6)[Gal(b1-3)GlcNAc(b1-3)]Gal(b1-4)Glc
Procedure, shortened: as §1

[4] = target: Gal(b1-3)GlcNAc(b1-3)Gal(b1-4)[Fuc(a1-3)]GlcNAc
Procedure, shortened: as §1

[5] = target: Gal(b1-3)GlcNAc(b1-3)Gal(b1-4)[Fuc(a1-3)]GlcNAc(b1-6)[Gal(b1-3)GlcNAc(b1-3)]Gal(b1-4)Glc
Procedure, shortened: as §1

[6] = target: Gal(b1-3)GlcNAc(b1-3)GalNAc
Procedure, shortened: as §1

[7] = target: Gal(b1-3)GlcNAc(b1-6)Gal(b1-4)GlcNAc
Procedure, shortened: as §1

[8] = target: Gal(b1-3)GlcNAc(b1-6)GalNAc
Procedure, shortened: as §1

[9] = target: Gal(b1-3)GlcNAc(b1-6)[Gal(b1-3)]GalNAc
Procedure, shortened: as §1

Gal(b1-3)GlcNAc6S = target: Gal(b1-3)GlcNAc6S
Procedure, shortened: as §1

[10] = target: Gal(b1-3)[Fuc(a1-4)]GlcNAc
Procedure, shortened: as §1

[11] = target: Gal(b1-3)[Fuc(a1-4)]GlcNAc(b1-2)Man
Procedure, shortened: as §1

[12] = target: Gal(b1-3)[Fuc(a1-4)]GlcNAc(b1-2)Man(a1-3)[Gal(b1-3)[Fuc(a1-4)]GlcNAc(b1-2)Man(a1-6)]Man(b1-4)GlcNAc(b1-4)[Fuc(a1-6)]GlcNAc
Procedure, shortened: as §1

[13] = target: Gal(b1-3)[Fuc(a1-4)]GlcNAc(b1-3)Gal(b1-3)[Fuc(a1-4)]GlcNAc
Procedure, shortened: as §1

[14] = target: Gal(b1-3)[Fuc(a1-4)]GlcNAc(b1-3)Gal(b1-4)[Fuc(a1-3)]GlcNAc
Procedure, shortened: as §1

[15] = target: Gal(b1-3)[Fuc(a1-4)]GlcNAc(b1-6)GalNAc
Procedure, shortened: as §1

[16] = target: Gal(b1-3)[GlcNAc(b1-6)]GalNAc
Procedure, shortened: as §1

[17] = target: Gal(b1-3)[Neu5Ac(a2-6)]GalNAc
Procedure, shortened: as §1

[18] = target: Gal(b1-3)[Neu5Ac(a2-6)]GlcNAc(b1-4)Gal(b1-4)Glc
Procedure, shortened: as §1

[19] = target: Gal(b1-3)[Neu5Ac(b2-6)]GalNAc
Procedure, shortened: as §1

Gal(b1-4)Gal = target: Gal(b1-4)Gal
Procedure, shortened: as §1

[20] = target: Gal(b1-4)GalNAc(a1-3)[Fuc(a1-2)]Gal(b1-4)GlcNAc
Procedure, shortened: as §1

[21] = target: Gal(b1-4)GalNAc(b1-3)[Fuc(a1-2)]Gal(b1-4)GlcNAc
Procedure, shortened: as §1

Gal(b1-4)Glc = target: Gal(b1-4)Glc
Procedure, shortened: as §1

Gal(b1-4)Glc6S = target: Gal(b1-4)Glc6S
Procedure, shortened: as §1

Gal(b1-4)GlcNAc = target: Gal(b1-4)GlcNAc
Procedure, shortened: as §1

[22] = target: Gal(b1-4)GlcNAc(a1-6)Gal(b1-4)GlcNAc
Procedure, shortened: as §1

Gal(b1-4)GlcNAc(b1-2)Man = target: Gal(b1-4)GlcNAc(b1-2)Man
Procedure, shortened: as §1

[23] = target: Gal(b1-4)GlcNAc(b1-2)Man(a1-3)Man(b1-4)GlcNAc(b1-4)GlcNAc
Procedure, shortened: as §1

[24] = target: Gal(b1-4)GlcNAc(b1-2)Man(a1-3)[Gal(b1-4)GlcNAc(b1-2)Man(a1-6)]Man(b1-4)GlcNAc(b1-4)GlcNAc
Procedure, shortened: as §1

[25] = target: Gal(b1-4)GlcNAc(b1-2)Man(a1-3)[Gal(b1-4)GlcNAc(b1-2)Man(a1-6)]Man(b1-4)GlcNAc(b1-4)[Fuc(a1-6)]GlcNAc
Procedure, shortened: as §1

[26] = target: Gal(b1-4)GlcNAc(b1-2)Man(a1-3)[Gal(b1-4)GlcNAc(b1-2)Man(a1-6)][Gal(b1-4)GlcNAc(b1-4)]Man(b1-4)GlcNAc(b1-4)[Fuc(a1-6)]GlcNAc
Procedure, shortened: as §1

[27] = target: Gal(b1-4)GlcNAc(b1-2)Man(a1-3)[Gal(b1-4)GlcNAc(b1-2)Man(a1-6)][GlcNAc(b1-4)]Man(b1-4)GlcNAc(b1-4)[Fuc(a1-6)]GlcNAc
Procedure, shortened: as §1

[28] = target: Gal(b1-4)GlcNAc(b1-2)Man(a1-3)[GlcNAc(b1-2)Man(a1-6)]Man(b1-4)GlcNAc(b1-4)GlcNAc
Procedure, shortened: as §1

[29] = target: Gal(b1-4)GlcNAc(b1-2)Man(a1-3)[GlcNAc(b1-4)][Gal(b1-4)GlcNAc(b1-2)Man(a1-6)]Man(b1-4)GlcNAc(b1-4)GlcNAc
Procedure, shortened: as §1

[30] = target: Gal(b1-4)GlcNAc(b1-2)Man(a1-3)[Man(a1-6)]Man(b1-4)GlcNAc(b1-4)GlcNAc
Procedure, shortened: as §1

[31] = target: Gal(b1-4)GlcNAc(b1-2)Man(a1-6)Man(b1-4)GlcNAc(b1-4)GlcNAc
Procedure, shortened: as §1

[32] = target: Gal(b1-4)GlcNAc(b1-2)Man(a1-6)[GlcNAc(b1-2)Man(a1-3)]Man(b1-4)GlcNAc(b1-4)GlcNAc
Procedure, shortened: as §1

B1: Vd7LysM (Verticillium dahliae) (protein)
chain: RRGPEPKYPPAAGTSSYCSYWVDYEGDKSCSRVLEDNVVVLKDFARWNPTVGADCSGIKAGNSYCVEAFGEPEPIEVTTTTRAATTTTQPTATTTTFANGIATPQPTQSGMVTNCNKFHWIAEGVSCSQVISFQKITLADFVKWNPSVKSDCSGMWAGVNVCVGVVGSSTDTAKPTTTAPSNGVVTPQPTQPSMVTNCNKFHWIAKGVTCQQVISYQKISLADFVKWNPSVLSDCSGMWAEVQVCVGVIGSTPTTLATTTTTAGNGVSTPLPTQPGMVTNCAKFHWVAKGVTCNQIYSFQKITLEQFVSYNPTVKSDCSGMQAEVQVCVGLIAGTTPTTTRPPTTTAPGNGVSTPQPTQPGMVTNCAKFHWVAKGVTCNQIYSFQKITLEQFVSFNPTVKSDCTGMQAEVNVCVGLIGGNPTPTQTGNGIATPTPIQPGMVSNCKKFHWIAQGVTCQQVISFQKITLADFVKWNTGVGSDCRTMWAETNVCVGV
- glycan array binding signal (z-score) [1]: 1.95
- glycan array binding signal (z-score) [2]: 1.82
- glycan array binding signal (z-score) [3]: -1.41
- glycan array binding signal (z-score) [4]: -2.84
- glycan array binding signal (z-score) [5]: -0.547
- glycan array binding signal (z-score) [6]: 0.861
- glycan array binding signal (z-score) [7]: 1.31
- glycan array binding signal (z-score) [8]: -0.265
- glycan array binding signal (z-score) [9]: -0.142
- glycan array binding signal (z-score) (Gal(b1-3)GlcNAc6S): -0.63
- glycan array binding signal (z-score) [10]: -0.618
- glycan array binding signal (z-score) [11]: -0.46
- glycan array binding signal (z-score) [12]: 0.346
- glycan array binding signal (z-score) [13]: 1.63
- glycan array binding signal (z-score) [14]: 0.324
- glycan array binding signal (z-score) [15]: -0.63
- glycan array binding signal (z-score) [16]: -0.603
- glycan array binding signal (z-score) [17]: 0.094
- glycan array binding signal (z-score) [18]: -0.885
- glycan array binding signal (z-score) [19]: 0.809
- glycan array binding signal (z-score) (Gal(b1-4)Gal): -0.47
- glycan array binding signal (z-score) [20]: -1.77
- glycan array binding signal (z-score) [21]: -0.628
- glycan array binding signal (z-score) (Gal(b1-4)Glc): 0.306
- glycan array binding signal (z-score) (Gal(b1-4)Glc6S): 0.592
- glycan array binding signal (z-score) (Gal(b1-4)GlcNAc): -0.007
- glycan array binding signal (z-score) [22]: -0.326
- glycan array binding signal (z-score) (Gal(b1-4)GlcNAc(b1-2)Man): -1.78
- glycan array binding signal (z-score) [23]: -0.846
- glycan array binding signal (z-score) [24]: -0.58
- glycan array binding signal (z-score) [25]: 0.126
- glycan array binding signal (z-score) [26]: -0.393
- glycan array binding signal (z-score) [27]: -0.224
- glycan array binding signal (z-score) [28]: -0.17
- glycan array binding signal (z-score) [29]: -0.397
- glycan array binding signal (z-score) [30]: -0.246
- glycan array binding signal (z-score) [31]: -0.12
- glycan array binding signal (z-score) [32]: 0.014
